6 molecules from PMC9505425, “Targeting of the Mitochondrial TET1 Protein by Pyrrolo[3,2-b]pyrrole Chelators” (International Journal of Molecular Sciences, 2022) can be followed below.

Series [1] in a line: Complexation with Fe(II) ions by UV–VIS titration (conditional binding constants). It counts as physicochemical. Conditions: for Log(K): water/DMSO 99:1; for interaction with Fe(II) ions: absorption spectroscopy. As for the experimental part: The interaction of prepared compounds 1–6 with Fe(II) ions was determined by absorption spectroscopy, and the highest affinity (represented by the binding constant, Table 1) was obtained for compound 1 (Figure 3 and Table 1). […] On the contrary, we expected that an incorporation of another iron-binding group (i.e., hydroxyphenyl) into the structural motif of compound 1 would support its chelation ability. Loss of chelation ability could be explained by the protonation of the iron-binding group. […] On the contrary, they can display a negative charge in the basic pH.
The complexation of compounds 1–6 with Fe(II) ions was studied by UV–VIS spectroscopy in aqueous medium (water/DMSO, 99:1, v/v). Compounds 1–6 were dissolved in DMSO (Penta, Katovice, Czech Republic) that, prior to the experiment, had been diluted with water to a concentration of 10 μM. The concentrations of Fe(II) ions varied from 0 to 0.5 mM. All titrations were performed in the same environment, and the ratio of DMSO to water was held constant. All absorption spectra of the chelators were recorded by a Cintra 404 GBC spectrometer. Conditional constants (Ks) were calculated from the absorbance changes, ΔA, of compounds 1–6 at the spectral maxima of their complexes with Fe(II), using nonlinear regression analysis with the Letagrop Spefo 2.0 (Vanura, Prague, Czech Republic) software. The computational model for conditional constants (Ka) is described and discussed in detail elsewhere, with the same method used to study the interactions of the organic hosts with metal ions in aqueous medium. Solutions were mixed in the cuvette during the whole titration and after every Fe(II) chelate addition.

The next series relates to HF-P4 cells. The series can be described thus: Intracellular localization by live-cell fluorescence microscopy. The series is classed as cell-based, human. Conditions: HF-P4, 1 μM; for intracellular localization: 15 min. As for the experimental part:
Using real-time live-cell fluorescence microscopy on the model HF-P4 cell line, we investigated the intracellular localization of tested compounds at a concentration of 1 μM.
The intracellular localization of tested compounds 1–6 was investigated by fluorescence real-time live-cell microscopy using a Leica TCS SP8 WLL SMD-FLIM microscope at 37 °C and a 5% CO2 atmosphere. The model cell line, HF-P4 cells, was seeded at a density of 4.0 × 10^4 per well on 22 × 22 mm glasses (VWR, Stříbrná Skalice, Czech Republic) in Petri dishes for live-cell imaging in a complete cell culture medium (DMEM with 1% streptomycin and 10% FBS), and cells were maintained overnight (24 h) for adhesion. After 24 h, the cells were incubated for 15 min (37 °C, 5% CO2) in a complete culture medium containing compounds 1–6 at 1 μM concentrations, together with 50 nM of MitoTracker® Red FM (MTR; Thermo Fisher, Prague, Czech Republic) and 300 nM of LysoTracker® Green FM (LTG; Thermo Fisher, Prague, Czech Republic). […] Cells were then rinsed with PBS twice and left in a fresh medium without phenol red. We used a water objective, HC PL APO CS2 63× (NA 1.2), and laser with an excitation wavelength of 405 nm (10% power) with a fluorescence emission range 415–480 nm for visualization of cells. For MTR, we used a laser with an excitation wavelength of 579 nm (power 8%), and for LTG, we used a laser with an excitation wavelength of 504 nm (power 10%). Colocalization of the tested hydrazone derivates with mitochondria or lysosomes was assessed by correlation statistical analysis of the intensity values of red (MTR) or green (LTG) and blue (hydrazone derivate) pixels in dual-channel images. Pearson’s correlation coefficient was calculated using the ImageJ software.

Entries after “also recorded” stand apart in the source; their conditions may differ. Some entries repeat one wording, which the source may state once for all of them.

Consider `CCN(CC)c1ccc(/C=N/NC(=O)c2ccc(-c3cc4c(cc(-c5ccc(C(=O)N/N=C/c6ccc(N(CC)CC)cc6O)cc5)n4-c4ccc(C)cc4)n3-c3ccc(C)cc3)cc2)c(O)c1` [Compound 2], for which the “Log(K)” value in series [1] (Fe(II) ions:compound 1:1) is given as 7.2/M; in series [1] (Fe(II) ions:compound 1:2), 17.2/M^2. The intracellular localization entry in the series on HF-P4 cells was “both mitochondria and lysosomes”.

For the molecule `Cc1ccc(-n2c(-c3ccc(C(=O)NN)cc3)cc3c2cc(-c2ccc(C(=O)NN)cc2)n3-c2ccc(C)cc2)cc1` [Compound 1], the “Log(K)” value in series [1] (Fe(II) ions:compound 1:1) was 8.4/M; in series [1] (Fe(II) ions:compound 1:2) it was 17.2/M^2. Besides, the intracellular localization result with HF-P4 cells is recorded as “exclusive mitochondrial localization; also recorded: selectivity for mitochondria”. Moreover, the “Pearson’s correlation coefficient (mitochondrial colocalization)” value with HF-P4 cells (MitoTracker Red) came out at 0.92.

Turning to `Cc1ccc(-n2c(-c3ccc(C(=O)N/N=C/c4cc(F)ccc4O)cc3)cc3c2cc(-c2ccc(C(=O)N/N=C/c4cc(F)ccc4O)cc2)n3-c2ccc(C)cc2)cc1` [Compound 3], in series [1], the “interaction with Fe(II) ions” value is recorded as “no significant interaction”. Moreover, in the series on HF-P4 cells, the intracellular localization result is given as “lysosomes”.

As for `Cc1ccc(-n2c(-c3ccc(C(=O)N/N=C/c4ccccc4O)cc3)cc3c2cc(-c2ccc(C(=O)N/N=C/c4ccccc4O)cc2)n3-c2ccc(C)cc2)cc1` [Compound 6], the “interaction with Fe(II) ions” value in series [1] is reported as “no significant interaction”. Moreover, the intracellular localization result in the series with HF-P4 cells was “lysosomes”.

For the molecule `Cc1ccc(-n2c(-c3ccc(C(=O)N/N=C/c4ccc(O)cc4O)cc3)cc3c2cc(-c2ccc(C(=O)N/N=C/c4ccc(O)cc4O)cc2)n3-c2ccc(C)cc2)cc1` [Compound 4], the “Log(K)” value is 6.9/M in series [1] (Fe(II) ions:compound 1:1), 17.4/M^2 in series [1] (Fe(II) ions:compound 1:2) and 10.9/M^2 in series [1] (Fe(II) ions:compound 2:1). In addition, in the series with HF-P4 cells, the intracellular localization entry is given as “lysosomes”.

With `COc1cccc(/C=N/NC(=O)c2ccc(-c3cc4c(cc(-c5ccc(C(=O)N/N=C/c6cccc(OC)c6O)cc5)n4-c4ccc(C)cc4)n3-c3ccc(C)cc3)cc2)c1O` [Compound 5], the “interaction with Fe(II) ions” value in series [1] was “no significant interaction”. In the series with HF-P4 cells, the intracellular localization entry was “both mitochondria and lysosomes”.
